The list shows a part of the results. Most of these values are background signal.
Key:
Assay in all cases: fluorescence intensity of antibody binding to polysaccharide-coupled beads; higher = stronger binding
[1] = target: pneumococcal polysaccharide Pn6A
[2] = target: pneumococcal polysaccharide Pn6B
[3] = target: pneumococcal polysaccharide Pn6C
[4] = target: pneumococcal polysaccharide Pn6D
[5] = target: pneumococcal polysaccharide Pn7A
[6] = target: pneumococcal polysaccharide Pn7B
[7] = target: pneumococcal polysaccharide Pn7C
[8] = target: pneumococcal polysaccharide Pn7F
[9] = target: pneumococcal polysaccharide Pn8
[10] = target: pneumococcal polysaccharide Pn9A
[11] = target: pneumococcal polysaccharide Pn9L
[12] = target: pneumococcal polysaccharide Pn9N
[13] = antibody concentration 81.7561 ng/mL
[14] = antibody concentration 437.17 ng/mL
[15] = antibody concentration 2337.65 ng/mL
[16] = antibody concentration 12500 ng/mL
[17] = antibody concentration 0.1 ng/mL
[18] = antibody concentration 0.534724 ng/mL
[19] = antibody concentration 2.8593 ng/mL
[20] = antibody concentration 15.2894 ng/mL

B1: 4-173.5 (protein)
chain 1: QLQLQESGPGLVKPSETLSLTCAVSGDSISSNYWSWIRQPPGKGLEWIGRISDGGGSTDYNPSLKSRVTISTDTSKNQFSLKLNSVTAADTAVYFCARGSYRVDYWGQGVLVTVSS
chain 2: QAALTQPPSMSGSPGQSVTISCTGASSDIGGYNRVSWYQQHPANAPKLMIYDVSKRPSGVSDRFSGSKSGNTASLTISGLQADDEADYYCSSYAHINTALFGGGTRLTVL
fluorescence intensity [1, 13]: 224 MFI | fluorescence intensity [1, 14]: 965 MFI | fluorescence intensity [1, 15]: 2660 MFI | fluorescence intensity [1, 16]: 4170 MFI | fluorescence intensity [2, 17]: 19.2 MFI | fluorescence intensity [2, 18]: 20.2 MFI | fluorescence intensity [2, 19]: 21 MFI | fluorescence intensity [2, 20]: 36.8 MFI | fluorescence intensity [2, 13]: 141 MFI | fluorescence intensity [2, 14]: 609 MFI | fluorescence intensity [2, 15]: 1610 MFI | fluorescence intensity [2, 16]: 2710 MFI | fluorescence intensity [3, 17]: 17.2 MFI | fluorescence intensity [3, 18]: 16.2 MFI | fluorescence intensity [3, 19]: 16.8 MFI | fluorescence intensity [3, 20]: 21.2 MFI | fluorescence intensity [3, 13]: 85.8 MFI | fluorescence intensity [3, 14]: 472 MFI | fluorescence intensity [3, 15]: 1880 MFI | fluorescence intensity [3, 16]: 4170 MFI | fluorescence intensity [4, 17]: 18.8 MFI | fluorescence intensity [4, 18]: 17.5 MFI | fluorescence intensity [4, 19]: 19.8 MFI | fluorescence intensity [4, 20]: 31 MFI | fluorescence intensity [4, 13]: 122 MFI | fluorescence intensity [4, 14]: 623 MFI | fluorescence intensity [4, 15]: 2070 MFI | fluorescence intensity [4, 16]: 3600 MFI | fluorescence intensity [5, 17]: 19.5 MFI | fluorescence intensity [5, 18]: 18.5 MFI | fluorescence intensity [5, 19]: 20 MFI | fluorescence intensity [5, 20]: 21 MFI | fluorescence intensity [5, 13]: 21.5 MFI | fluorescence intensity [5, 14]: 36.2 MFI | fluorescence intensity [5, 15]: 105 MFI | fluorescence intensity [5, 16]: 454 MFI | fluorescence intensity [6, 17]: 16 MFI | fluorescence intensity [6, 18]: 16.5 MFI | fluorescence intensity [6, 19]: 18.2 MFI | fluorescence intensity [6, 20]: 26 MFI | fluorescence intensity [6, 13]: 100 MFI | fluorescence intensity [6, 14]: 586 MFI | fluorescence intensity [6, 15]: 2710 MFI | fluorescence intensity [6, 16]: 4980 MFI | fluorescence intensity [7, 17]: 14.5 MFI | fluorescence intensity [7, 18]: 16 MFI | fluorescence intensity [7, 19]: 15.5 MFI | fluorescence intensity [7, 20]: 23 MFI | fluorescence intensity [7, 13]: 61.8 MFI | fluorescence intensity [7, 14]: 410 MFI | fluorescence intensity [7, 15]: 2140 MFI | fluorescence intensity [7, 16]: 3960 MFI | fluorescence intensity [8, 17]: 14.5 MFI | fluorescence intensity [8, 18]: 15.8 MFI | fluorescence intensity [8, 19]: 17.5 MFI | fluorescence intensity [8, 20]: 27.8 MFI | fluorescence intensity [8, 13]: 83 MFI | fluorescence intensity [8, 14]: 312 MFI | fluorescence intensity [8, 15]: 954 MFI | fluorescence intensity [8, 16]: 1870 MFI | fluorescence intensity [9, 17]: 22.5 MFI | fluorescence intensity [9, 18]: 22 MFI | fluorescence intensity [9, 19]: 23 MFI | fluorescence intensity [9, 20]: 27.5 MFI | fluorescence intensity [9, 13]: 42 MFI | fluorescence intensity [9, 14]: 136 MFI | fluorescence intensity [9, 15]: 429 MFI | fluorescence intensity [9, 16]: 872 MFI | fluorescence intensity [10, 17]: 21 MFI | fluorescence intensity [10, 18]: 20.5 MFI | fluorescence intensity [10, 19]: 22.2 MFI | fluorescence intensity [10, 20]: 49.5 MFI | fluorescence intensity [10, 13]: 264 MFI | fluorescence intensity [10, 14]: 1330 MFI | fluorescence intensity [10, 15]: 4250 MFI | fluorescence intensity [10, 16]: 6900 MFI | fluorescence intensity [11, 17]: 15.5 MFI | fluorescence intensity [11, 18]: 18 MFI | fluorescence intensity [11, 19]: 18 MFI | fluorescence intensity [11, 20]: 21.5 MFI | fluorescence intensity [11, 13]: 43.2 MFI | fluorescence intensity [11, 14]: 252 MFI | fluorescence intensity [11, 15]: 1370 MFI | fluorescence intensity [11, 16]: 2880 MFI | fluorescence intensity [12, 17]: 17 MFI | fluorescence intensity [12, 18]: 17.2 MFI | fluorescence intensity [12, 19]: 17.5 MFI | fluorescence intensity [12, 20]: 34.2 MFI | fluorescence intensity [12, 13]: 166 MFI | fluorescence intensity [12, 14]: 988 MFI

Reference: the supplement of paper PMC11438910
